Results from article PMC4260845.
Results are given in words; binding and its absence hold for the method and conditions named. Where a sequence is shown, tags or fusion partners need not be part of it.

Assays:
[1] = biological target: Starmaker-like protein (Stm-l) from medaka (Oryzias latipes), recombinant, non-tagged (Oryzias latipes (medaka)) (UniProt C5J3N6); assay: AUC; sedimentation velocity, 20°C, 40 000 rpm, buffer A; Stm-l at 0.40, 1.22 or 2.50 mg/mL; c(s) analysis with SEDFIT; both purified
[2] = biological target: Starmaker-like protein (Stm-l) from medaka (Oryzias latipes), recombinant, non-tagged (Oryzias latipes (medaka)) (UniProt C5J3N6); assay: SEC; Superdex 200 10/300 GL, buffer A (20 mM Tris, 150 mM NaCl, pH 7.5), room temperature, 0.5 ml/min; Stm-l loaded at 0.1, 0.5 or 2.5 mg/mL in 0.2 mL; both purified

B1: Starmaker-like protein (Stm-l) from medaka (Oryzias latipes), recombinant, non-tagged (protein, UniProt C5J3N6 1-361)
chain: MGSMKNSDDESKETSKAAAEVKTTEKTAENPDATDEPSEETSEGEELDSADDSQDSTDEPSQETAETKETESADKSEDKSSAAEETDEEASDSADVSEAVSESEETSSSPEVRGSKTNNTEDKISFEEVEDQSDEMSMDKDKKSEESSMRPTDSVKGAEDSASLESDEMFEESDEQSEEEKSTSAPTSEDAGADSEDESDQSSQDLSKEDDSKGQDAVQSQDDGTTSKADLMDDDLGAEDDKDEEKEEAADGDAKDLGVMIEKDEEEKVEVNKEQVDSNEDQPAKENSDEKDEADKEKDASDKKDLSMSEEEPDWEEEMGMDDSLEEEEKANKKTSDEKGSFDETTSDQLDQPDNSTPPADAAM
binding [1]: no binding (tested: 0.40, 1.22 and 2.50 mg/mL) | binding [2]: no binding (tested: 0.1, 0.5 and 2.5 mg/mL)
